Data reported in paper PMC6404586.
Results are given in words; binding and its absence hold for the method and conditions named. Some results given as binding are weak or reduced against the parent protein; the word gives no strength.

Protein sequences, listed by entry. Tags and fused reporters are not part of them. Lines headed by an entry give the natural chain unless they say otherwise; changes in a name come on top. Residues count along the entry.
UniProt P20023: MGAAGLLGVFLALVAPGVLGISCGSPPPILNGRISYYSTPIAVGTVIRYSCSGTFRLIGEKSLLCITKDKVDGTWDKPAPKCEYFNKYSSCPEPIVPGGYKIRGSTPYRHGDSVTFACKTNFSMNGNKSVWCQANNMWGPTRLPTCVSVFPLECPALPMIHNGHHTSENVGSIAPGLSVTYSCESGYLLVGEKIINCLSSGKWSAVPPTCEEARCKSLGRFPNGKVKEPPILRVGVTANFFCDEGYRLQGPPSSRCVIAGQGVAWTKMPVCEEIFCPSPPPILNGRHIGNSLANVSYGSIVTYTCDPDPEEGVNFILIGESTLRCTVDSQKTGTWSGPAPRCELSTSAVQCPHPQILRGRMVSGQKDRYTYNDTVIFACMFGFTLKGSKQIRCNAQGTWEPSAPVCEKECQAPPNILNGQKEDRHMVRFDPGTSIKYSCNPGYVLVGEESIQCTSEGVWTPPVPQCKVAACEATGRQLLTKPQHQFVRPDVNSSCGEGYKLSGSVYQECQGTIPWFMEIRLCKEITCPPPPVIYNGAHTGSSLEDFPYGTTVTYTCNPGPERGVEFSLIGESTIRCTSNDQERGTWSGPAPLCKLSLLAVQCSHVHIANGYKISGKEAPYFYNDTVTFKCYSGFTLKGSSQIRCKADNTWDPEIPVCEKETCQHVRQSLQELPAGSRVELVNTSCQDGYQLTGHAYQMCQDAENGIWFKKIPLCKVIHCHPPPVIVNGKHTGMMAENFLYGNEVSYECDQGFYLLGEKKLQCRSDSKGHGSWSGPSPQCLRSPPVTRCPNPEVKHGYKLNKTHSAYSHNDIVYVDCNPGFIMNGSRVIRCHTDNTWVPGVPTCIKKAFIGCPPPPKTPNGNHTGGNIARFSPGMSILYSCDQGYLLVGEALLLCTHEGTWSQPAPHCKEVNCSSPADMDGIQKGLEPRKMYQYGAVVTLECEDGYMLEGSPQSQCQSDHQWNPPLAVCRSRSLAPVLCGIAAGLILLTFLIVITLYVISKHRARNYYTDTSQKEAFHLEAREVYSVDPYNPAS
CR2/CD21 on B cells (human (endogenous in Raji)): residues 21-1033 of P20023
UniProt P01024, residues 1002-1303: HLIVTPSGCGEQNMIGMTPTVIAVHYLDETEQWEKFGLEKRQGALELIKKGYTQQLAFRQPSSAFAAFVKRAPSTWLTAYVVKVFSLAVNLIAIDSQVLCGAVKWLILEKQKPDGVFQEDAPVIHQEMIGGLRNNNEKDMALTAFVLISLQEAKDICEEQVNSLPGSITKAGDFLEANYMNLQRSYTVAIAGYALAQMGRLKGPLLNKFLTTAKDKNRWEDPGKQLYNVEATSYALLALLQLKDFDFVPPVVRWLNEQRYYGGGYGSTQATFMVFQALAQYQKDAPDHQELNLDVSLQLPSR

What was measured:
soluble CR2/CD21 = soluble CR2/CD21 (UniProt P20023); assay: ELISA; competitive: 100 ng of soluble CR2/CD21 coated; C3d (100 ng/well) preincubated with serial dilutions of CIP in PBS; anti-C3 goat pAb; both purified
C3d (human) = C3d (human) (UniProt P01024); assay: ELISA; 250 ng of C3d coated; CIP or CD21 in buffer with increasing NaCl (0-2.5 M); anti-CIP or anti-CD21 serum; both purified
[1] = target: CR2/CD21 on B cells (human (endogenous in Raji)) (UniProt P20023); assay: flow cytometry on cells; bC3d–SA, preincubated or not with CIP at 1, 3, 6 and 9 μM, added to Raji cells, 15 min at 37°C; anti-C3d mAb and phycoerythrin-labeled secondary antibody; only the binder purified

C3d (from UniProt P01024 1002-1303) (domain or fragment)
binding (soluble CR2/CD21): binds

soluble CR2/CD21 (from UniProt P20023 21-971) (receptor)
binding (C3d (human)): binds

biotinylated C3d preincubated with streptavidin (C3d–biotin–SA) (from UniProt P01024 1002-1303) (complex)
binding [1]: binds
